Measured values: patent US20090054312A1, “SMIPs: Small molecule inhibitors of p27 depletion in cancers and other proliferative diseases” (priority 2007, published 2009)
For part of these data: At least one compound was matched to its structure with a doubt left. Some results were stated once for a whole list of compounds, not compound by compound.

Experiments:
[1] = system: p27 levels in S14 cells; assay: p27 immunoblotting in S14 cells; assay type: cell-based, human; details: proteasome and CDK inhibitors
[2] = system: p27 levels in LNCaP-S14 cells; assay: p27 immunofluorescence screening assay in LNCaP-S14 cells; details: 17-80 μM, duplicate
[3] = system: p27 stability in LNCaP-S14 cells; assay: p27 stability, cycloheximide chase in LNCaP-S14 cells; assay type: cell-based, human; details: 18 h pretreatment (SMIP 40 μM, MG132 20 μM), CHX 100 μg/ml; vehicle 2.36 h

**Q.** How did the “p27 levels in S14 cells, control compounds” value [1] turn out when CC[C@H](C)[C@H](NC(=O)[C@H]([C@@H](C)CC)N(C)C(C)=O)C(=O)N[C@H](C(=O)N[C@@H](CC(C)C)C(=O)[C@@]1(C)CO1)[C@@H](C)O [epoxomycin, reference compound] was run?
**A.** The value was “restored”.

**Q.** Which primary screen outcome [2] does the source give for COC[C@H]1OC(=O)c2coc3c2[C@@]1(C)C1=C(C3=O)[C@@H]2CCC(=O)[C@@]2(C)C[C@H]1OC(C)=O [Wortmannin, reference compound] here?
**A.** Its primary screen outcome is “scored positive”.

**Q.** For CCCCc1ccc(NC(C)=O)c(C)c1 [SMIP004, N-(4-butyl-2-methyl-phenyl)acetamide], which “half-life of p27” value [3] is on record?
**A.** The value was “greater than 6 h”.
